From patent US20020102533A1, “Hepatitis C protease exosite for inhibit or design” (priority 2000, published 2002)
“Also recorded” adds a separate entry of the source. Part of at least one peptide drawing is inferred or uncertain, most often the ends. Where a SMILES comes first, the peptide text is derived from it. [ ]: non-standard residue; d: D form. The star is where a group is joined. Dip = N[C@H](C(=O)O)C(c1ccccc1)c1ccccc1; X1 = C=CCC(N*)B1OC2CC3CC(C3(C)C)C2(C)O1; Cha = N[C@@H](CC1CCCCC1)C(=O)O

Target: T1, HCV protease (NS3) (Hepatitis C virus genotype 1a, UniProt P26664)
T1 construct: NS3 protease catalytic domain (amino acids 1 to 192); MGAQH expression leader (5 aa), or alternatively the 15 aa His tag MRGSHHHHHHMGAQH; made in house; host or cells: E. coli BL21 (DE3)
Assay type: binding
Settings: in the presence of NS4a
Method: Intrinsic fluorescence studies: Assays were conducted in 0.5 ml fluorescent cuvettes (0.4 ml total volume). […] Fluorescence spectra were obtained by exiting at 280 nm (10 nm slit) and scanning the emission profile from 300 to 400 nm (10 nm slit) at 1 nm s^−1.
Fluorescence spectrum of HCV protease (0.45 μM) in 50 mM Tris buffer, pH 7.0, containing 15% glycerol, and 0.10% maltoside were measured over a range of 300-400 nm using an excitation wavelength of 280 nm. Both excitation and emission slit widths were 10 nm and the scan rate was 1.0 nm sec^−1.

Question: Which “effect on intrinsic fluorescence” value does the source give for `C=CCC(NC(=O)[C@H](CC1CCCCC1)NC(=O)[C@H](CCC(=O)O)NC(=O)[C@@H](NC(=O)[C@H](CCC(=O)O)NC(=O)[C@H](CC(=O)O)NC(C)=O)C(c1ccccc1)c1ccccc1)B1OC2CC3CC(C3(C)C)C2(C)O1` (stereo partly drawn) [Q9716, Ac-Asp-Glu-Dpa-Glu-Cha-boroAlg—C10H16] (Ac-DE[Dip]E[Cha]-X1) here?
Answer: The value was “unaltered; also recorded: does not effect the spectrum”.
